No constants are given. Whether binding was seen depends on the method and setting. Binding seen in cells or lysates may run through a third protein. Some results given as binding are weak or reduced against the parent protein; the word gives no strength.
What was measured:
[1] = target: Ku80 (endogenous) (human (endogenous in MKN1 and other GC cells)) (UniProt P13010); assay: co-IP; endogenous proteins; GC cells (APOL2 with Ku80); cells not named in the text for USP7; Western blot
Flag-Ku80 = Flag-Ku80 (UniProt P13010); assay: co-IP; HEK293T cells co-transfected with tagged constructs (GFP-APOL2 or its truncations, Flag-Ku80, Myc-USP7); lysed in IP buffer; the methods name anti-GFP magnetic beads; Western blot; one panel after 50 µM formononetin (FN) for 48 h (APOL2-Ku80 interaction attenuated)

Amino acid sequences for entries named in this document (tags omitted).
UniProt P13010: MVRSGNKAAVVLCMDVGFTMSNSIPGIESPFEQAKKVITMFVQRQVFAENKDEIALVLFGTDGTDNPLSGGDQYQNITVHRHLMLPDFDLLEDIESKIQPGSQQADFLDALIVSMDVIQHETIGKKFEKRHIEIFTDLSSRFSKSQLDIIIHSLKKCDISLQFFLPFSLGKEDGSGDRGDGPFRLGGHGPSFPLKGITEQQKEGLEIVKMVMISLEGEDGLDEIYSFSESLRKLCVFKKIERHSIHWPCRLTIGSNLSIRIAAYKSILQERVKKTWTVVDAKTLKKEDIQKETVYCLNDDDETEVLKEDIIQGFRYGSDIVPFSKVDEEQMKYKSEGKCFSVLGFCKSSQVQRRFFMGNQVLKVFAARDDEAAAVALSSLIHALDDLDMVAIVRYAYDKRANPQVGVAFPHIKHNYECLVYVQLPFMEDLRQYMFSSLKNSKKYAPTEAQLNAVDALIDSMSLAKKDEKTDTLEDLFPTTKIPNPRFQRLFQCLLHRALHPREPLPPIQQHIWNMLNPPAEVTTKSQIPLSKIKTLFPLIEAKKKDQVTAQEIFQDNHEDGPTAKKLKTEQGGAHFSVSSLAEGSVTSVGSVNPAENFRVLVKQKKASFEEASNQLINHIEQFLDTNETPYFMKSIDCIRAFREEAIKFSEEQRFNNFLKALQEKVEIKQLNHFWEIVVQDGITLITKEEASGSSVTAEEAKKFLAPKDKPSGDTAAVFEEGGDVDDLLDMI
UniProt Q93009: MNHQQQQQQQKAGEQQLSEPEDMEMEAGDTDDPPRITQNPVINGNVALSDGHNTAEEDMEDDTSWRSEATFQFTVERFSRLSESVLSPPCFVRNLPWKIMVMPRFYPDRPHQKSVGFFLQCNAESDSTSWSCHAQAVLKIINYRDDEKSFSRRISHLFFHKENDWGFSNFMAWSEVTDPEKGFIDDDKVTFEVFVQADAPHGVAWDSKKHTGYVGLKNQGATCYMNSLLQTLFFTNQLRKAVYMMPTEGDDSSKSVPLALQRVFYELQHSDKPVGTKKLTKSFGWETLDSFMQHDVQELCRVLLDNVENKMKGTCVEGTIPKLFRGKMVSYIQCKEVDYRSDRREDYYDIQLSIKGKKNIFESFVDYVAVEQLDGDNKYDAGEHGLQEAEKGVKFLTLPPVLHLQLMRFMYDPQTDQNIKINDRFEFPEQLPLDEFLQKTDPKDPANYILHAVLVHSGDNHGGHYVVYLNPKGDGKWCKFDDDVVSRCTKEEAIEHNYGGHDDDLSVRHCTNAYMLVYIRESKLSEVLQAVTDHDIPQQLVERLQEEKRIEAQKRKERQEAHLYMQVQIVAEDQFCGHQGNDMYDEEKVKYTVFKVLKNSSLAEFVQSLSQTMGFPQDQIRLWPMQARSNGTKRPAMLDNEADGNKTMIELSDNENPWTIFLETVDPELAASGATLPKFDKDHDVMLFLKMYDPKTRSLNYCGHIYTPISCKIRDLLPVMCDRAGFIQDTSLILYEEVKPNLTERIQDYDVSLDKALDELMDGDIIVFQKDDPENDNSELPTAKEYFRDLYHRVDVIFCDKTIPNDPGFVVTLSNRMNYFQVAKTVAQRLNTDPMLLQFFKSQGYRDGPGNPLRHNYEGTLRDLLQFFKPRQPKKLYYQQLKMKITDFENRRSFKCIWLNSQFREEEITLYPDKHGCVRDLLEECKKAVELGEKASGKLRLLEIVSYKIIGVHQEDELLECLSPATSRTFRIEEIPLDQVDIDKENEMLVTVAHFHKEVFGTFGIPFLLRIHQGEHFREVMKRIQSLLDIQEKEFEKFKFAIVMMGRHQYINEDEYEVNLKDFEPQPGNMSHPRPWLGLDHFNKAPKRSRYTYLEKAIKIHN

binding [1] | binding (Flag-Ku80) | Substance
binds |  | USP7 (endogenous) (from UniProt Q93009 1-1102) (enzyme)
 | binds | Myc-USP7 (from UniProt Q93009 1-1102) (enzyme)
